In experiment [1] the target is GFP fused LD2-LD4 peptide (LD2 and LD4 motifs of Paxillin), expressed in MDA231-LM2-4175 cells (UniProt P49024). The experiment is described as follows: co-IP; GFP-Trap agarose beads on RIPA lysates (20 mM Tris pH 7.5, 150 mM NaCl, 1% NP40) of doxycycline-induced and uninduced LM2-LD2-LD4 cells, 1.5 h at 4 °C; blotted for PYK2, FAK and GFP.
Experiment [2] concerns the target GFP fused LD2-LD4 peptide (LD2 and LD4 motifs of Paxillin), expressed in FAK null fibroblasts (UniProt P49024). Nature of the experiment: co-IP; GFP-Trap agarose beads on RIPA lysates (20 mM Tris pH 7.5, 150 mM NaCl, 1% NP40) of doxycycline-induced and uninduced FAK null cells, 1.5 h at 4 °C; blotted for PYK2 and GFP.

Amino acid sequences for entries named in this document (tags omitted).
UniProt Q05397: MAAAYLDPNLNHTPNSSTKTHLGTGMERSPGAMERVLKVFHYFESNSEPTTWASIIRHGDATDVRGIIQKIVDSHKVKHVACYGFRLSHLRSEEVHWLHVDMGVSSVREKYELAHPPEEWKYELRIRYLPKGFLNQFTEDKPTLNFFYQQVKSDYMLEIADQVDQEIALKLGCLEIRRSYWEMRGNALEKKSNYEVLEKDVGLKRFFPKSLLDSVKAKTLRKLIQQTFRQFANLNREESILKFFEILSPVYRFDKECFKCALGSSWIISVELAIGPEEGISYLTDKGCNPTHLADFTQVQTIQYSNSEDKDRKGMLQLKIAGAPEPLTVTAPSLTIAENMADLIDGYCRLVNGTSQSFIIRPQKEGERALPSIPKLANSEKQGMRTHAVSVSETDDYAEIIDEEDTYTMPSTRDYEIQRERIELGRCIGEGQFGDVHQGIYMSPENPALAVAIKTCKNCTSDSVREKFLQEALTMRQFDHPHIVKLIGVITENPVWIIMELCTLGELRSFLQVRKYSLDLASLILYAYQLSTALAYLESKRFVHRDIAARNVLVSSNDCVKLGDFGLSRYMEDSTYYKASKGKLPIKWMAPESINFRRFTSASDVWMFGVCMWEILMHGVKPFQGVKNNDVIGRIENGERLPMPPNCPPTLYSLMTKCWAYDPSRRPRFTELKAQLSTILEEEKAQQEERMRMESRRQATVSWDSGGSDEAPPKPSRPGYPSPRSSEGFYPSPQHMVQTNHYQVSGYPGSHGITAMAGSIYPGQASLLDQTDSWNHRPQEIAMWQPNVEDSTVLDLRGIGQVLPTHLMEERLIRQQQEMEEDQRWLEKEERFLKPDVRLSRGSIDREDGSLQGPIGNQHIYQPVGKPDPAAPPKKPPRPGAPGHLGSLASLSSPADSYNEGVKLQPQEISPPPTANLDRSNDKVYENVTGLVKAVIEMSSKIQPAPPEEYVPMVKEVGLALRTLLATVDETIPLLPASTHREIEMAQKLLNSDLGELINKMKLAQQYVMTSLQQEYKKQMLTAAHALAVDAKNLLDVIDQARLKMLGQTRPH
UniProt Q9QVP9: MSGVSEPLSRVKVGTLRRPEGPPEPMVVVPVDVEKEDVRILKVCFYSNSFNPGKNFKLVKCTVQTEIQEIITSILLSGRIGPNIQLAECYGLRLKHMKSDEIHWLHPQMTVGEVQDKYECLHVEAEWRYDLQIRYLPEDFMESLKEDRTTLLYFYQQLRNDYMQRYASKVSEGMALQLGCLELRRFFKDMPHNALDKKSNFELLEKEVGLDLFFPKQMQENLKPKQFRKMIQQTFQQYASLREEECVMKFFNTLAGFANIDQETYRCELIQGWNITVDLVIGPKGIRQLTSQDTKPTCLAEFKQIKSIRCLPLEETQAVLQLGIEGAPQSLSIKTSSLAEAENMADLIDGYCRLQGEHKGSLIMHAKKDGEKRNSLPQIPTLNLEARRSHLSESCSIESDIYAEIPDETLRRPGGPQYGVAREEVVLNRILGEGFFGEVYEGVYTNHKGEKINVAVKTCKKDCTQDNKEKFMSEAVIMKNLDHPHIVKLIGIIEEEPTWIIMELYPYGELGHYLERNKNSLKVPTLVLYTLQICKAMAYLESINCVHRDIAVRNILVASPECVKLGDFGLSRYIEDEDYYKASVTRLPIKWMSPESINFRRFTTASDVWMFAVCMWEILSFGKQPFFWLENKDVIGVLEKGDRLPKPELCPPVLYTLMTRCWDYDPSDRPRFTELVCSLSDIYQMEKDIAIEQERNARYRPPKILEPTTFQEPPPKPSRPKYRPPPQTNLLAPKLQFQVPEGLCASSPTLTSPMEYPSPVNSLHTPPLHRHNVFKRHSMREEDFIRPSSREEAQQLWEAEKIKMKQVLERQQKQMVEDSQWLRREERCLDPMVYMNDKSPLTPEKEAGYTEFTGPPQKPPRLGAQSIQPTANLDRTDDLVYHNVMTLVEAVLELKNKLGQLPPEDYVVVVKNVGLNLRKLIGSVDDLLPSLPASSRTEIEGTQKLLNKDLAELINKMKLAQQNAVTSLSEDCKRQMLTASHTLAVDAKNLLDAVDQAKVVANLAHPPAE
UniProt Q14289: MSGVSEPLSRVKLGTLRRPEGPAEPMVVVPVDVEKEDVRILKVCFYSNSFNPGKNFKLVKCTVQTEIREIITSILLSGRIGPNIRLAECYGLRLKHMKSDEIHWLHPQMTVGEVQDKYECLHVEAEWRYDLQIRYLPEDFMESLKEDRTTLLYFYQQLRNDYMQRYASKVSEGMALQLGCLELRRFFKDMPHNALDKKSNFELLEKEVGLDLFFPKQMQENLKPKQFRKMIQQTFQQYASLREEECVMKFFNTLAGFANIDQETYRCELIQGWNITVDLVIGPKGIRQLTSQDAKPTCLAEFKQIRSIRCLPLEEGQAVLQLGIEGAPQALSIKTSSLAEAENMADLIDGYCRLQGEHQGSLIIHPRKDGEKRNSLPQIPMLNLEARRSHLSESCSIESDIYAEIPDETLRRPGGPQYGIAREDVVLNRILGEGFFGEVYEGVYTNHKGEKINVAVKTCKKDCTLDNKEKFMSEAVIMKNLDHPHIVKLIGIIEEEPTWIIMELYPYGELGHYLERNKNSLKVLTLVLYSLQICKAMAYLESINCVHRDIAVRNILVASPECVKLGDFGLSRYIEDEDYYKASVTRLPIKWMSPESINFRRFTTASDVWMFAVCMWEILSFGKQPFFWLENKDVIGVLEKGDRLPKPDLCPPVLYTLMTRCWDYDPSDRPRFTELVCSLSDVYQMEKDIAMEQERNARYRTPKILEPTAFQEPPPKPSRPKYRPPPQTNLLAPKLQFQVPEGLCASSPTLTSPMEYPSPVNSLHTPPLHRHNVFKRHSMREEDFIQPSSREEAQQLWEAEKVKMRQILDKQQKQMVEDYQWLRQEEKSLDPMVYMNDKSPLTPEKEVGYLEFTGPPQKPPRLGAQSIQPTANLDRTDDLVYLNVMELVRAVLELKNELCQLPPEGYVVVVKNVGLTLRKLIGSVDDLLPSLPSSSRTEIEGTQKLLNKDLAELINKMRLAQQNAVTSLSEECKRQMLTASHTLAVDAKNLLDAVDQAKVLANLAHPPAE

These are yes or no findings as the source states them, for the method shown. Binding seen in cells or lysates may run through a third protein. Some binding calls cover weakened binding; strength is not graded here.

On to “Focal Adhesion Kinase (FAK), endogenous in MDA231-LM2-4175 cells (from UniProt Q05397 1-1052)”, for which the binding result in experiment [1] is on record as “binds”.

Turning to “PYK2, endogenous in FAK null fibroblasts (from UniProt Q9QVP9 1-1009)”, in experiment [2], the binding result is recorded as “binds”.

As for “PYK2, endogenous in MDA231-LM2-4175 cells (from UniProt Q14289 1-1009)”, the binding entry in experiment [1] is given as “binds”.

The values are drawn from paper PMC12087225.
